## Primary screen of a compound library

Data taken from ChEMBL document CHEMBL3988442, “University of Dundee, Small-Polar-MMV Screening Library” (2021).

The filed quantity is “Percent Effect” (%).
The record does not define 0% and 100%; most values in the screen are far below 50% and negative numbers occur (in some assays of this library far below -100).
Compounds were drawn at random from those tested, without regard to their results.
Two or more numbers in one place are separate tests of the same structure; such repeats can differ widely.
A dash means the value is not listed here; it may have been measured.

Toxoplasma: 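Assay of Toxoplasma gondii numbers, read through their beta-galactosidase reporter with a colour substrate. Compounds at 10 µM. Higher reads as fewer parasites (inferred from which compounds were picked for retests). About 67,000 compounds were tested under these conditions; 0.38% (about 260) showed 50% or more at least once.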
T. brucei: 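Whole-parasite assay of Trypanosoma brucei over 72 hours; the read-out is not stated. Compounds at 30 µM. Higher reads as stronger inhibition (inferred: compounds with an IC50 in retests scored well above the rest). Values scatter widely below zero; nearly all retest evidence comes from the higher of the two concentrations used. Size under these conditions: about 64,000 compounds, about 940 of them at 50% or above in at least one test.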
Leishmania in macrophages: 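Cell assay of Leishmania donovani living inside macrophages; the read-out is not stated. Compounds at 30 µM. Direction is inferred from retests: higher values go with stronger inhibition. About 69,000 compounds were tested under these conditions; 1.5% (about 1,000) showed 50% or more at least once.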

compound	Toxoplasma	T. brucei	Leishmania in macrophages
CN(C)CCOCC1CN(C(=O)[C@H]2CCCO2)Cc2ccnn2C1 (stereo partly specified)	2.778%	35.8%	23.16%
CCc1ocnc1C(=O)N1CCOCC1CC(=O)c1ccccc1 (stereo unspecified)	-7.287%	-18.58%	32.25%
CC(=O)N1CC(=O)N(c2cnn(C)c2)CC12CCN(Cc1ccco1)C2 (stereo unspecified)	-11.82%	-41.47%	8.312%
Cc1cccc(-c2nc(C)nn2CN2CCC3(CC2)OCCO3)c1	-6.082%	-190.8%	-6.145%
CCCC(=O)NCCc1cc(N2CCN(C(C)=O)CC2)nc(C2CC2)n1	-5.399%	6.028%	1.157%
CCN1CCOC(CNCc2c(Cl)nc3ccccn23)C1 (stereo unspecified)	-7.789%	-21.82%	1.024%
Cc1noc(C)c1CSCc1nc(N)c2ccccc2n1	7.26%	-36.99%	23.87%
COCCC(=O)N1CCCC1c1csc(Nc2ccccn2)n1 (stereo unspecified)	2.442%	41.71%	10.54% and -17.21%
O=C(C1CC1)N1CCc2nc(C3CCN(C(=O)C4CC4)C3)nc(O)c2C1 (stereo unspecified)	-12.55%	-11.44%	2.97%
CCOc1ccccc1-c1noc(CN2CC(n3cccn3)C2)n1	-2.422%	-37.1%	-1.03%
CN(C)c1ncnc2c1CCN(CC1CCOC1)CC2.O=C(O)C(F)(F)F (stereo unspecified)	2.313%	-	13.83%
CC(=O)N1CCC2(CC1)C(=O)N(C)c1c(F)cccc12	-4.787%	-30.46%	-4.372% and 15.04%
[H][C@@]12CCN(S(=O)(=O)c3cccc(F)c3)C[C@]1(C(=O)NC)CCO2	-4.199%	-29.15%	3.195%
CNC(=O)COc1ccc(-c2ccccc2)nc1	1.408%	-8.529%	-11.54%
c1ccc2oc(C3CCN(Cc4ncon4)CC3)nc2c1	3.476%	-50.69%	16.93%
O=C(Cc1ccsc1)N1CCCC(c2n[nH]c3ncccc23)C1 (stereo unspecified)	19.77%	-5.558%	10.35%
CCN(CC)CCNC(=O)c1cc(OC)c2ccoc2c1	13.15%	-11.03%	23.81%
COc1ccc(CNC(C)Cn2cccn2)cc1F (stereo unspecified)	-14.54%	-11.52%	5.674%
CNC(=O)c1ccc(CNCc2ccc(SC)c(OC)c2)cc1	-5.423%	-26.38%	-11.94%
COc1ccccc1CC(C)CC(=O)N(C)Cc1cc(C)on1 (stereo unspecified)	-2.524%	72.44%	6.655%
CC(CNC(=O)c1ccc(C#N)cc1)N1CCc2ccccc21 (stereo unspecified)	-1.855%	1.685%	24.53%
CC(C)C1CN(C(=O)c2ccsc2)CCS1 (stereo unspecified)	2.185%	-27.45%	-13.68%
N#Cc1cccc(CN2C(=O)C3(CCNCC3)Nc3ccccc32)c1	3.048%	83.34%	37.63%
Clc1ccccc1C1(c2ccnc(C3CCCC3)n2)CCNCC1	92.51%	101.7%	99.4%
CC(C(=O)NCc1ccnc(N2CCCC2)c1)n1cncn1 (stereo unspecified)	1.411%	-37.87%	6.041%
FC(F)(F)c1cccc(OC2CCN(Cc3c[nH]cn3)CC2)c1	10.08%	-30.86%	0.2013%
Cc1nn(CCO)cc1CN1CCC(N2CCC(O)CC2)CC1	0.7134%	-68.51%	8.505%
Cc1ccc(N2CCCC(NCc3cnc(C)s3)C2)nn1 (stereo unspecified)	-5.356%	-17.41%	12.94%
Cl.O=C(CN1CCC[C@H]1C(=O)O)NCCOc1cccc(Cl)c1	-1.937%	-4.252%	29.65%
O=C(c1ccc(NCc2ccco2)nc1)N1CCc2ccccc21	-0.3464%	-9.53%	-1.41%
CC[C@@H]1N(Cc2ccoc2)CCC[C@]12CCC(=O)N2CCOC.O=C(O)C(F)(F)F	9.358%	-24.22%	-8.415%
CN1CCC(NC(=O)Nc2cnn(-c3ccccc3Cl)c2)C1=O (stereo unspecified)	-0.1218%	-17.87%	4.727%
CCCc1nnc(NCCCn2nc(C)c(Cl)c2C)o1	-75.59%	28.95%	14.64%
Cc1cccc(C2(C(=O)NC(C)Cn3ccnc3)CC2)c1 (stereo unspecified)	11.14%	-11.5%	-6.546%
CN1CCC(c2cccc(Cc3ccccc3)n2)CC1	2.392%	2.73%	-1.115% and 14.13%
Cc1cnc(N2CCC3(CCCCN3C)C2)nc1.O=C(O)C(F)(F)F (stereo unspecified)	15.7%	-23.01%	-11.7%
CN1CCN(C(=O)[C@@H]2CN(C)C[C@]23COc2ccc(F)cc2C3=O)CC1	18.07%	-20.1%	37.91%

The first 4 entries again:

- CN(C)CCOCC1CN(C(=O)[C@H]2CCCO2)Cc2ccnn2C1 (stereo partly specified) : Toxoplasma: 2.778%; T. brucei: 35.8%; Leishmania in macrophages: 23.16%
- CCc1ocnc1C(=O)N1CCOCC1CC(=O)c1ccccc1 (stereo unspecified) : Toxoplasma: -7.287%; T. brucei: -18.58%; Leishmania in macrophages: 32.25%
- CC(=O)N1CC(=O)N(c2cnn(C)c2)CC12CCN(Cc1ccco1)C2 (stereo unspecified) : Toxoplasma: -11.82%; T. brucei: -41.47%; Leishmania in macrophages: 8.312%
- Cc1cccc(-c2nc(C)nn2CN2CCC3(CC2)OCCO3)c1 : Toxoplasma: -6.082%; T. brucei: -190.8%; Leishmania in macrophages: -6.145%